Source: publication PMC8327344, “Regulation of a pentameric ligand-gated ion channel by a semiconserved cationic lipid-binding site” (The Journal of Biological Chemistry, 2021)

Test system: wild-type (WT) ELIC
Assay: FlexStation membrane potential dye assay, GABA-elicited responses
Assay type: cell-based, D. didantii
Details: HEK293 cells transfected with WT ELIC
Description: These methods were similar to those previously described ([55]). Briefly, ELIC cDNA was transfected into HEK293 cells, and these were then grown for 2 to 3 days in a 96-well plate. Then blue fluorescent membrane potential dye (Molecular Devices Ltd) diluted in Flex buffer (10 mM HEPES, 115 mM NaCl, 1 mM KCl, 1 mM CaCl2, 1 mM MgCl2, 10 mM glucose, pH 7.4) was added to each well. After incubation at 37 °C for 30 min, plates were placed in a FlexStation (Molecular Devices Ltd) and fluorescence measured every 2 s for 120 s. […] Concentration–response data were fitted to the four-parameter logistic equation, F = Fmin + (Fmax − Fmin)/(1 + 10^log(EC50-[A])∗^nH), where [A] is the concentration of agonist, nH is the Hill coefficient, and Fmax and Fmin are the maximal and minimal fluorescence levels for each dataset, using Prism software (GraphPad). WT and mutant responses were compared using an ANOVA test followed by Dunnett’s multiple comparison test.

NCCCC(=O)O [GABA]
pEC50: 2.96 ± 0.20
EC50 (read-out: GABA EC50-value): 1100 µM
